Results from one PubChem assay

From PubChem BioAssay record AID1159506 (NCATS, 2015).

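Luminescence from an EWS-FLI1 target-promoter (NR0B1) reporter, set against a CMV-promoter reporter, two days after silencing single genes in TC32 Ewing sarcoma cells.
Each siRNA was applied at 20 nM.
A z-score of the log NR0B1-over-CMV signal, less the median of siRNAs with the same seed; more negative means a stronger specific loss of the NR0B1 reporter.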

This is part of the screen; most of the strongest results are not listed here.
Sequences are the guide (antisense) strand, without overhang.

strand	gene	seed-corrected z-score
UCAGUGAAGUGCUUGGUCC	MFSD7	0.3756
UUCGUUUUUCAUGAGGAUC	HOXC11	0.8838
AAAUGGUCUGGAGAGCUUC	MAPK14	0.8152
AACCGUACGAAGCUGAUCC	LAMA4	-0.552
UUCUCGAACAUAAACUCUC	MCF2	-0.4049
AUACGUGUAAUUCUGUGCU	MAN2B2	1.853
UUACUGGAAAGCACGAAGG	KLHL13	-1.492
UUUUCCACCAUCUCGCGCA	KCNG4	-0.3623
UAUGCGUAUAGAAGGAUCC	SLC4A7	-0.2035
UUUCCUCGCACUUAUCUGC	TP53BP2	-0.02946
UAUCCAACAGUGCAACUGG	C10orf12	-0.117
UUGUCUCCUAGGUAGAUGC	LRAT	0.03386
UAGGCGAUGAACUCGGGUC	COX6A1	-0.9029
UCCGCUUCUUCAUCCUACG	C11orf87	0.1385
UAGCGUGAAUGUAUUCUGC	CD22	-0.5856
AUAGUUCUCAGCAGCAUCC	PIK3R3	-1.389
UUGCCGAUGAAGUUCUCCG	MGAT5B	-0.2684
UAUGAUAUCCUCAAUAACC	IQCA1	-0.2467
AUAGGGAGUAUAGCAGGGU	MAPKAPK3	-0.2336
AAUCACUUUAGACAAGAGC	LRRC20	-0.2639
UAGUCAACCACCAUAGUGA	PEA15	0.7157
UUUAAUCGUAAGUUAGUUC	TDRP	0.6875
UGUCGAUGAAUUGAGCUAG	RPA3	-0.6061
UAUCUUACACCUACUCUUG	FGF4	0.5489
UAAAUAAUUGAGGCUGACU	ZBP1	-0.3105
UCCUCCUUCAGCGAACAGC	HOXD9	0.1249
UCUAAUUCUUGCUCUUUCC	HSF2BP	0.4065
UUUGUUUCUACUACCUAAC	TCFL5	-0.3924
UAGGUUCUCGGCUCUGUCU	POFUT2	-0.2674
UAAGAGGUGUUUCAUGGGC	TTC25	-1.787
UUAUGUUCAUCACCGCUCC	GLYATL3	-0.3639
AAAGGGUAUAUCCAAACUC	ATG13	-0.9223
UCCAUGAUCACCUGAGUUG	LOC728730	1.396
UUCGGUCACAGAGAGGGUC	VSIG2	1.553
UACUGGUUAAAAUUAGGAG	FGF17	-0.6579
ACCAGUAUAAAGUUUAUCC	MMAA	-0.2889
UCGUUGAUGAUAUCUGUCC	LDLR	-0.357
UUCCUUAGAGCCGUAACUG	CNST	0.4141
AUAGUCCACACCGCAAGCC	ARRB1	0.4801
UUGGAUUCCUUUUUGUCUG	APOBEC4	0.07904
UCAUGCAGAAUCCCAAAGC	TRE17	1.602
AAUUUGUUGCGAAACGUCG	LOC730668	2.282
UCUUCGGCAAAUCCAAUCG	CDKAL1	1.283
UCAAUCUUCUGGUAGAUCU	EHD1	0.4875
GCUGAACGAAUCCAAAUCC	SOX11	-0.2839
AAAGCUUUAUUCAUAGUUC	HAGHL	1.162
UUUAGAAACCCAAAUGUAC	MT1IP	1.192
UUAACGGUACUGGUACUUC	SI	0.1978
UUCUUUACACGUAUGCUGG	GPRIN3	0.2263
AUACAAAUCCUUAUAAGCC	DPYSL3	0.2739
UCACUGUCACUGGUCAAUG	PTCD3	-0.2624
UAAACGAUUCCUCUGGUGA	OSTCP3	0.7442
UUUGUAGGUGGUGAGAUGG	LOC389834	-0.4756
AACUUGAUUGGAAUAGCUG	RRP7A	-0.5895
UUCAGUACUAUUACAAUGC	TAS2R8	0.4797
AAUGAUGCUAGCGAUUUGC	KMT2D	-0.8522
UCUGUUUCUCAUGAGUUUC	SLAMF9	-1.134
UAAUGAGCUAUCGUAAUGC	FOXL1	-0.4066
UCAUUGGGAACAGUCACUG	RACGAP1	-0.07756
UUCUGUACUUUAUCUGAGC	GGCX	0.04943
AUGAUGUAAAGGGAGCUUC	HEPACAM	1.245
AUCUGUGAGACUUUGUUCC	ZKSCAN1	-0.7531
UUUGCUGUAUUUUACACGC	C9orf85	0.1333
AAUCCUACUGGGUAGGUCG	PEG10	0.543
UUGCUUGAAACCUAUGGUU	PAGE2	-0.293
UGUACAGUCACAUCUAAUC	FAM98B	1.029
AUAAUCCAGAUCAAUAAGC	AP5M1	0.2966
UUCUUUUAGGGUGUUCACC	JMJD6	-0.3078
UAGAUUCUUGUGGAUGCUC	GCAT	0.1577
UCAGCUUCGAACAGUGUGC	ALOX15	-1.051

For reference, 4 entries once more:

strand	gene	seed-corrected z-score
UAUCUUACACCUACUCUUG	FGF4	0.5489
UUUCCUCGCACUUAUCUGC	TP53BP2	-0.02946
UAAUGAGCUAUCGUAAUGC	FOXL1	-0.4066
AUGAUGUAAAGGGAGCUUC	HEPACAM	1.245